From PMC4400043
These are yes or no findings as the source states them, for the method shown. In cells and extracts the contact can be indirect. Some results given as binding are weak or reduced against the parent protein; the word gives no strength.

Protein sequences, listed by entry. Tags and fused reporters are not part of them.
UniProt Q9H1Y0: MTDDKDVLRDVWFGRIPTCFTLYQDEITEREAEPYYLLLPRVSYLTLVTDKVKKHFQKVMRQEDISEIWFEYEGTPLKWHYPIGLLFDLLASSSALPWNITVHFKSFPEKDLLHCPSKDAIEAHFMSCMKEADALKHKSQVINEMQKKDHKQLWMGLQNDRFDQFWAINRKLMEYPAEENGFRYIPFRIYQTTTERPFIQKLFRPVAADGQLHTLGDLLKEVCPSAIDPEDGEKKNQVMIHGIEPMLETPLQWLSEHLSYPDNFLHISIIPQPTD
UniProt Q7Z434: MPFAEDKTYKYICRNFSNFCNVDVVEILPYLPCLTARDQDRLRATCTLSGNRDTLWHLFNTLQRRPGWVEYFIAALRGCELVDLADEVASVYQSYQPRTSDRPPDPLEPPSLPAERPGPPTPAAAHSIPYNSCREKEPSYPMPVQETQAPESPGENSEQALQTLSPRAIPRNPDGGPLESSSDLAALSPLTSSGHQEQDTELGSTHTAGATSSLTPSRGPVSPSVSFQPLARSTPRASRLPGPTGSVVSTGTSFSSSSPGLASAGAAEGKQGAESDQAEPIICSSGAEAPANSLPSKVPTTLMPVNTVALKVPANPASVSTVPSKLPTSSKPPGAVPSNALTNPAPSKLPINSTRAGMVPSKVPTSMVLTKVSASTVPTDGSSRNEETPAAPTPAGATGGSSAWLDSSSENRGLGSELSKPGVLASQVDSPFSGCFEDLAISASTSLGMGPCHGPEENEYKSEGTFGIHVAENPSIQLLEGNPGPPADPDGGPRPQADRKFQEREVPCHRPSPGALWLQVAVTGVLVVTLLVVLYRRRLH

Molecular target: autophagy-related gene 5 (ATG5) protein (human (endogenous in NHTE cells)) (UniProt Q9H1Y0)
Experiment: co-IP; endogenous ATG5 precipitated with mouse anti-human ATG5 antibody (clone ATG5-18) from pre-cleared NHTE cell lysates (50 mM Tris-HCl pH 8.0, 120 mM NaCl, 1% NP-40, 4 mM EDTA), 4°C, 2 h; blots of RIG-I, IPS-1 and ATG5; cells treated with or without 100 mM trehalose for 48 h and with HRV-16 or PBS for 6 h

Molecule	binding
IFN-β promoter stimulator 1 (IPS-1) (from UniProt Q7Z434 1-540)	binds
retinoic acid-inducible gene I (RIG-I) (protein, UniProt O95786 1-925) MTTEQRRSLQAFQDYIRKTLDPTYILSYMAPWFREEEVQYIQAEKNNKGPMEAATLFLKFLLELQEEGWFRGFLDALDHAGYSGLYEAIESWDFKKIEKLEEYRLLLKRLQPEFKTRIIPTDIISDLSECLINQECEEILQICSTKGMMAGAEKLVECLLRSDKENWPKTLKLALEKERNKFSELWIVEKGIKDVETEDLEDKMETSDIQIFYQEDPECQNLSENSCPPSEVSDTNLYSPFKPRNYQLELALPAMKGKNTIICAPTGCGKTFVSLLICEHHLKKFPQGQKGKVVFFANQIPVYEQQKSVFSKYFERHGYRVTGISGATAENVPVEQIVENNDIIILTPQILVNNLKKGTIPSLSIFTLMIFDECHNTSKQHPYNMIMFNYLDQKLGGSSGPLPQVIGLTASVGVGDAKNTDEALDYICKLCASLDASVIATVKHNLEELEQVVYKPQKFFRKVESRISDKFKYIIAQLMRDTESLAKRICKDLENLSQIQNREFGTQKYEQWIVTVQKACMVFQMPDKDEESRICKALFLYTSHLRKYNDALIISEHARMKDALDYLKDFFSNVRAAGFDEIEQDLTQRFEEKLQELESVSRDPSNENPKLEDLCFILQEEYHLNPETITILFVKTRALVDALKNWIEGNPKLSFLKPGILTGRGKTNQNTGMTLPAQKCILDAFKASGDHNILIATSVADEGIDIAQCNLVILYEYVGNVIKMIQTRGRGRARGSKCFLLTSNAGVIEKEQINMYKEKMMNDSILRLQTWDEAVFREKILHIQTHEKFIRDSQEKPKPVPDKENKKLLCRKCKALACYTADVRVIEECHYTVLGDAFKECFVSRPHPKPKQFSSFEKRAKIFCARQNCSHDWGIHVKYKTFEIPVIKIESFVVEDIATGVQTLYSKWKDFHFEKIPFDPAEMSK	binds
